# Patent US6337306B1, “Phenoxyacetic acid derivatives and their use as herbicides” (Rhone-Poulenc Agro, priority 1997, dated 2002)
# Some of these results come from one statement about several compounds together.
# Test system: Abutilon theophrasti, Amaranthus retroflexus, Galium aparine, Ipomoea purpurea, Alopecurus myosuroides, Avena fatua, Echinochloa crus-galli, Setaria viridis
# Assay: Test Method 2: weed control, glass house pot test
# Assay type: in vivo, weed species
# Settings: 250 g/hectare or less, pre- or post-emergence, versus control pots
compound,measurement,value
COC=C(Oc1ccc(Cl)cc1CON=C(C)c1ccc(Cl)cc1)C(=O)OC [Compound 4.71],reduction in growth of one or more of the weed species,at least 90%
COC=C(Oc1ccc(Cl)cc1CBr)C(=O)OC [Compound 1.73],reduction in growth of one or more of the weed species,at least 90%
COC=C(Oc1ccc(Cl)cc1CON=C(C)OCc1ccccc1)C(=O)OC [Compound 4.107],reduction in growth of one or more of the weed species,at least 90%
COC=C(Oc1ccc(Cl)cc1COc1ccccc1C)C(=O)OC [Compound 2.129],reduction in growth of one or more of the weed species,at least 90%
CCC(=NOCc1ccccc1)OCc1cc(Cl)ccc1OC(=COC)C(=O)OC [Compound 5.541 E isomer],reduction in growth of one or more of the weed species,at least 90%
